Test results: paper PMC8568969

Amino acid sequences for entries named in this document (tags omitted). A change or cut given only in a name is not applied to a line headed by its entry. Chains listed by the source or under a name are the forms on record and can include a tag or linker.
UniProt Q9BUA3: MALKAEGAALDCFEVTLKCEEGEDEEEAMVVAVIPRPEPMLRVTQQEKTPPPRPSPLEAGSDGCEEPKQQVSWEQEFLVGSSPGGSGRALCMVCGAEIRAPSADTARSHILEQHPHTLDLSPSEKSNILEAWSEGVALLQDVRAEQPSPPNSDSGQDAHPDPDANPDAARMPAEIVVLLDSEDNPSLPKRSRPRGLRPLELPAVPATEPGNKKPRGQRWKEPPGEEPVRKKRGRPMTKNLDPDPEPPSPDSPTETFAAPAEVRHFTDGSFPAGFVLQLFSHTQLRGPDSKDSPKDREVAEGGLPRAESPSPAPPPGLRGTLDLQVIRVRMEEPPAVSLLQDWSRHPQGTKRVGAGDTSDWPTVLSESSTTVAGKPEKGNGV
GFP-SPINDOCΔ251–293aa (Q9BUA3, form named): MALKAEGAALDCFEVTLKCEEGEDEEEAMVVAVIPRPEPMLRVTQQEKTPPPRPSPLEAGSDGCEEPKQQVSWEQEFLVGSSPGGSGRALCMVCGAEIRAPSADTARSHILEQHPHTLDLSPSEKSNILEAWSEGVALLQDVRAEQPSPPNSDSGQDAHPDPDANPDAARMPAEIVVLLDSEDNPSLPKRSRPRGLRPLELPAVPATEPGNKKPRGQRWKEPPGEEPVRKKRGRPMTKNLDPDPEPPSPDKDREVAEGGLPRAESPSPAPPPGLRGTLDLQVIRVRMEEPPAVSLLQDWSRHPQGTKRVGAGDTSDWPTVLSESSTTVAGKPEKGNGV
UniProt P09874: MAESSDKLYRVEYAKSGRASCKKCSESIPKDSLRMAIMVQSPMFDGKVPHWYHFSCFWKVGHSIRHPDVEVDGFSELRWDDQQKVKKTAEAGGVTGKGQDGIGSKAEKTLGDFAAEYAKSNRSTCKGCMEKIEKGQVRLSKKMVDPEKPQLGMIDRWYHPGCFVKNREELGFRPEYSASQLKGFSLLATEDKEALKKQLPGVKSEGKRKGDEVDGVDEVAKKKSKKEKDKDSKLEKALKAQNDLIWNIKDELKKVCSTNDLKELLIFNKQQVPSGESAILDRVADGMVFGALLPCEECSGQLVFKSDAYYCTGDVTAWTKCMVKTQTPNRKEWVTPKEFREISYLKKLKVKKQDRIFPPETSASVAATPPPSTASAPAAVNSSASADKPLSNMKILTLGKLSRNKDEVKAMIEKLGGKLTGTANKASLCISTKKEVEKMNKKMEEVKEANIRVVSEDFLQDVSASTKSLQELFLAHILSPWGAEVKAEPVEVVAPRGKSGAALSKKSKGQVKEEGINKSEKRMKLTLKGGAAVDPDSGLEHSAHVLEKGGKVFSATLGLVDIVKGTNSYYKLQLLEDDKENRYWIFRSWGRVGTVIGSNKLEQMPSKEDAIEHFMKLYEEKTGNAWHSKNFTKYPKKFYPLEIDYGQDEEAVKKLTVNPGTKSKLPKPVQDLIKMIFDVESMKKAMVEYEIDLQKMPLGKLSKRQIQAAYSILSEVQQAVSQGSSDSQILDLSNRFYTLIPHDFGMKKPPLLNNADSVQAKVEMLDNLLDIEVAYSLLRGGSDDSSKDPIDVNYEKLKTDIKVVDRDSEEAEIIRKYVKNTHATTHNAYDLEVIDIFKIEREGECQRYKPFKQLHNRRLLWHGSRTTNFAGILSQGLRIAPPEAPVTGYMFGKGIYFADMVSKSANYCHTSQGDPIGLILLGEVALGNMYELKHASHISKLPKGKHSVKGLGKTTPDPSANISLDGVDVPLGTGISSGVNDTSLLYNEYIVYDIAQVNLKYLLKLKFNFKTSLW

Key:
GFP-SPINDOCΔ251–293aa = GFP-SPINDOCΔ251–293aa (UniProt Q9BUA3); experiment: affinity purification with mass spectrometry; anti-GFP IP from cytoplasmic and nuclear fractions of HEK293T cells transfected with GFP-SPINDOC or GFP-SPINDOC del251–293aa (pEGFP-C1 as control), SDS-PAGE, in-gel trypsin digestion, LC-MS/MS
GFP-SPINDOC = GFP-SPINDOC (UniProt Q9BUA3); experiment: as above

binding (GFP-SPINDOCΔ251–293aa): binds
binding (GFP-SPINDOC): binds
Substance: PARP1 (endogenous) (from UniProt P09874 1-1014)

Results are given in words; binding and its absence hold for the method and conditions named. In cells and extracts the contact can be indirect. These calls come from enrichment with a bait or labelling near it, and not all partners need be listed.
